Values from PubChem BioAssay AID652243 (Drosophila RNAi Screening Center, 2013)

Screen: 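Fly regulators of androgen-dependent reporter output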 (primary screen)
System: Drosophila S2R+ cells
Knock-down reagent: long dsRNA against Drosophila genes
Duration: 72 h (48 h, then 24 h hormone)
Challenge: synthetic androgen R1881 at 10 nM for 24 h
Measurement: 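Per-well raw luminescence of the androgen-driven firefly reporter and of the Renilla control, two replicates each, without normalisation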
Direction: firefly reporter light: higher = more light from androgen-responsive reporter; Renilla control light: higher = more constitutive control signal (cell number, transfection)
Hit rule: 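Across duplicate plates, a knock-down whose log firefly/Renilla ratio shifted a set fold down or up from the GFP/LacZ control mean was a hit; the downward cut appears as both 1.5 and 3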
Calls: active = hit: reporter lowered or raised; inactive = no hit
In all, the deposit lists about 24,000 reagents; below is an unselected part of those that have a named target and a result. Of all reagents, 246 (1%) got an active call. 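Plates not normalised; calls are printed but the firefly/Renilla ratio behind them is not deposited; fold cut for lowering reported inconsistently.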 Raw values are not corrected between plates. Reagents against one gene are numbered here. Names joined by + are all predicted targets of the reagent. Not given: the amount of reagent.

predicted target,dsRNA no.,"firefly reporter light, replicate 1","firefly reporter light, replicate 2","Renilla control light, replicate 1","Renilla control light, replicate 2",outcome
cv-2,1,2.49e5,2.72e5,3.68e5,4.66e5,inactive
cv-2,2,1.18e5,1.21e5,1.61e6,9.74e5,inactive
kuk,1,1.28e5,1.03e5,8.35e5,8.00e5,inactive
kuk,2,2.90e5,2.35e5,6.95e5,6.38e5,inactive
CG7966,1,68408,48156,5.94e5,2.74e5,inactive
RpS12,1,7.57e5,3.94e5,1.10e6,1.21e6,inactive
CG11333,1,3.44e5,3.73e5,2.90e6,4.05e6,inactive
tll,1,1.91e5,1.32e5,2.19e6,2.43e6,inactive
tll,2,9.43e5,9.45e5,3.02e6,2.27e6,inactive
tll,3,1.26e6,1.40e6,2.26e6,2.02e6,inactive
Rtel1,1,2.51e5,2.54e5,2.70e6,2.59e6,inactive
Rtel1,2,2.67e5,2.99e5,5.85e5,5.28e5,inactive
CG31897,1,1.82e5,2.58e5,4.43e5,4.72e5,inactive
cup,1,7.65e5,1.13e6,1.01e6,1.08e6,inactive
cup,2,5.30e5,2.84e5,3.92e5,3.67e5,inactive
Coop,1,8.27e5,6.37e5,2.00e6,1.57e6,inactive
Coop,2,6.79e5,4.72e5,4.66e5,4.37e5,inactive
Naprt,1,8.10e5,9.38e5,3.12e6,2.80e6,inactive
Naprt,2,4.58e5,4.83e5,1.31e6,1.56e6,inactive
CG9265,1,1.45e5,1.26e5,1.51e6,1.02e6,inactive
CG9265,2,1.75e5,2.35e5,1.46e6,1.86e6,inactive
EndoU + CR31292,1,2.62e5,1.77e5,5.98e5,5.45e5,inactive
Lcp1Psi,1,63470,95004,65067,1.05e5,inactive
Lcp1Psi,2,2.61e5,5.19e5,6.20e5,1.34e6,inactive
CG7387,1,7.04e5,8.11e5,1.20e6,1.26e6,inactive
hoe1,1,6.25e5,1.24e6,8.38e5,1.23e6,inactive
hoe1,2,1.79e5,1.44e5,2.42e6,1.32e6,inactive
hoe1,3,1.65e5,1.10e5,1.62e6,8.06e5,inactive

9 entries from above, arranged by “firefly reporter light, replicate 2”, highest first.
predicted target,dsRNA no.,"firefly reporter light, replicate 1","firefly reporter light, replicate 2","Renilla control light, replicate 1","Renilla control light, replicate 2",outcome
Naprt,1,8.10e5,9.38e5,3.12e6,2.80e6,inactive
Coop,1,8.27e5,6.37e5,2.00e6,1.57e6,inactive
Naprt,2,4.58e5,4.83e5,1.31e6,1.56e6,inactive
Coop,2,6.79e5,4.72e5,4.66e5,4.37e5,inactive
cup,2,5.30e5,2.84e5,3.92e5,3.67e5,inactive
CG9265,2,1.75e5,2.35e5,1.46e6,1.86e6,inactive
EndoU + CR31292,1,2.62e5,1.77e5,5.98e5,5.45e5,inactive
CG9265,1,1.45e5,1.26e5,1.51e6,1.02e6,inactive
Lcp1Psi,1,63470,95004,65067,1.05e5,inactive

More records:
predicted target,dsRNA no.,"firefly reporter light, replicate 1","firefly reporter light, replicate 2","Renilla control light, replicate 1","Renilla control light, replicate 2",outcome
Prosbeta6,1,14053,12187,1.89e5,1.77e5,inactive
Vm32E,1,2.57e5,2.35e5,1.55e6,1.98e6,inactive
Vm32E,2,2.49e5,2.45e5,8.04e5,5.17e5,inactive
Fer3,1,44197,27422,3.56e5,3.68e5,inactive
Fer3,2,2.20e5,2.43e5,7.01e5,7.81e5,inactive
Fer3,3,9.80e5,9.58e5,1.90e6,2.47e6,inactive
dind,1,1.09e5,82053,5.64e5,9.04e5,inactive
dind,2,3.89e5,3.05e5,6.36e5,4.94e5,inactive
CG6749,1,2.94e5,2.07e5,2.79e6,2.28e6,inactive
RunxA,1,57483,81604,3.13e5,1.85e5,inactive
RunxA,2,6.13e5,6.01e5,2.82e6,3.23e6,inactive
RunxA,3,5.33e5,5.96e5,2.15e6,2.23e6,inactive
RunxA,4,6.90e5,6.80e5,9.42e5,7.83e5,inactive
RunxA,5,2.13e5,2.21e5,6.22e5,6.22e5,inactive
Fak,1,96834,81082,1.69e6,1.70e6,inactive
Fak,2,2.50e5,3.23e5,8.50e5,7.26e5,inactive
Fak,3,,,,,inactive
Fak,4,,,,,inactive
Mst33A,1,2.61e5,2.57e5,2.08e6,1.92e6,inactive
Mst33A,2,3.21e5,3.17e5,7.22e5,8.09e5,inactive
CG33632,1,9.37e5,5.98e5,1.37e6,8.40e5,inactive
CG17575,1,3.23e5,3.02e5,2.31e6,2.29e6,inactive
CG17575,2,2.08e5,2.01e5,3.45e5,4.23e5,inactive
CG18281,1,69061,58842,4.73e5,4.59e5,inactive
sev,1,4.77e5,3.52e5,3.23e6,3.77e6,inactive
sev,2,,,,,inactive
sev,3,,,,,inactive
sev,4,2.47e5,2.44e5,1.02e6,1.21e6,active
VhaAC39-1,1,1.19e5,1.15e5,1.09e6,9.21e5,inactive
VhaAC39-1,2,2.35e5,2.37e5,6.58e5,8.31e5,inactive
